PubChem BioAssay AID1259314 | Drosophila RNAi Screening Center – 2017

Aim: 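Transmembrane protein genes affecting ATP after manganese overload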 (primary screen)
System: Drosophila S2R+ cells
Reagents: long dsRNA against Drosophila genes
Timing: 5 days (4 days knock-down, then 1 day metal exposure)
Conditions: manganese chloride added to 15 mM for 24 hours
Measurement: 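Cellular ATP measured by luciferase light, scaled to the plate mean, averaged across replicates and z-scored over plates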
Reading the numbers: mean ATP z-score: higher = more ATP than the plate average, more viable cells under manganese
Active means: 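Called active when the mean ATP z-score is above 1.5 or below -1.5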
Meaning of the calls: active = strong ATP change, up or down; inactive = no strong ATP change
The whole screen tested about 3,100 reagents; below is an unselected part. Of all reagents, 289 (9.3%) are marked active. 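Active includes both higher and lower ATP than plate average; check the z-score sign for direction.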 Names joined by + are all predicted targets of the reagent. No sequences are given here. Not stated in the record: the amount of reagent.

gene | PubChem SID | mean ATP z-score | outcome
CG8026 | SID104186848 | 0.869 | inactive
Asph | SID104186575 | 1.39 | inactive
Asph | SID104208051 | -1.01 | inactive
Apl | SID104190142 | -0.158 | inactive
wun | SID104187511 | -0.113 | inactive
wun | SID104214286 | 0.37 | inactive
wun | SID104214287 | 1.01 | inactive
Npl4 | SID104195407 | -0.837 | inactive
Npl4 | SID104195408 | -0.245 | inactive
sina + Rh4 | SID104191188 | 1.93 | active
Ir76a | SID104190779 | -0.269 | inactive
bumpel | SID104195892 | 0.299 | inactive
opm | SID104201688 | -0.938 | inactive
opm | SID104208119 | -0.247 | inactive
stas | SID104199896 | 3.18 | active
OXA1L | SID104189464 | -1.14 | inactive
OXA1L | SID104208115 | -1.7 | active
Proc-R | SID104198202 | 0.101 | inactive
Proc-R | SID104217308 | 0.861 | inactive
Lar | SID104181499 | 0.322 | inactive
Lar | SID104183153 | 4.01 | active
Lar | SID104214570 | -0.333 | inactive
CG11703 | SID104194148 | -0.844 | inactive
CG11703 | SID104205051 | -0.424 | inactive
CG3592 | SID104198107 | -0.175 | inactive
CG3592 | SID104217424 | -0.666 | inactive

Active calls, among the entries above:
gene | PubChem SID | mean ATP z-score | outcome
sina + Rh4 | SID104191188 | 1.93 | active
stas | SID104199896 | 3.18 | active
OXA1L | SID104208115 | -1.7 | active
Lar | SID104183153 | 4.01 | active

The listing continues.
gene | PubChem SID | mean ATP z-score | outcome
CG32081 | SID104189653 | -1.26 | inactive
CG32081 | SID104217193 | 0.229 | inactive
Ca-Ma2d | SID104208274 | 0.357 | inactive
Ir84a | SID104192302 | -0.9 | inactive
Ir84a | SID104206031 | -0.516 | inactive
CG9458 | SID104196287 | 1.56 | active
CG6978 | SID104198201 | -0.204 | inactive
CG6978 | SID104217142 | -0.0542 | inactive
CG6696 | SID104199796 | -0.735 | inactive
CG6696 | SID104204192 | 0.0499 | inactive
NaCP60E | SID104184099 | -0.366 | inactive
NaCP60E | SID104204664 | 0.454 | inactive
pyx | SID104188303 | -1.26 | inactive
pyx | SID104206711 | 0.463 | inactive
CG11655 | SID104199205 | -1.15 | inactive
CG15408 | SID104180215 | -0.271 | inactive
CG15408 | SID104217290 | -0.583 | inactive
mthl10 | SID104188296 | 1.4 | inactive
mthl10 | SID104188297 | -0.285 | inactive
mthl10 | SID104216733 | -0.189 | inactive
